The values are deposited in ChEMBL (CHEMBL3988442, “University of Dundee, Small-Polar-MMV Screening Library” (2021)).

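Growth of Mycobacterium tuberculosis over 3 days (7H9 medium with glucose and tyloxapol); the read-out is not stated. Tested at 50 µM. Higher reads as more growth inhibition (inferred: compounds with an IC50 in retests scored well above the rest). Size under these conditions: about 69,000 compounds, about 760 of them at 50% or above in at least one test.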

Each number is a percent effect as filed.
The controls that fix the scale are not given in the record; negative values are as filed.
Compounds were drawn at random from those tested, without regard to their results.
Two or more numbers in one place are separate tests of the same structure; such repeats can differ widely.

SMILES	Percent Effect
COCCN1CCCn2cnc(CNC3CCCC3)c2C1.Cl.Cl	-9.052% & -4.384%
CCOCc1ccc(NC(=O)N2CCCC2c2nncn2C)cc1 (configuration not stated)	-4.854% & 18.57%
Cc1c[nH]c(C2COCCN2C(=O)c2ccc(=O)[nH]n2)n1 (configuration not stated)	0.1118%
O=C(Nc1ccc(-c2csnn2)cc1)NC(CCO)C1CC1 (configuration not stated)	-9.591%
Cc1nn(C)c(C)c1-c1cnc(C2CCCN(C)C2)cn1 (configuration not stated)	20.43%
Cc1ccccc1CN(Cc1ccccn1)C(=O)CNS(C)(=O)=O	-18.24%
O=C(CC1CC1)N1CCC2(CC1)CN(c1ncc(F)cn1)CCO2	-29.6%
Cc1cccc(C2(CNC(=O)CO)CCCC2)c1	-41.21%
NC(=O)CCSc1n[nH]c(-c2ccc3c(c2)CCC3)n1	20.44%
c1cncc(CC2CN(c3cccnc3)CCO2)c1 (configuration not stated)	-5.815%
c1ccc(CO[C@H]2CN(c3ncccn3)C[C@@]23CCCO3)cc1	-22.38%
Cc1cnn(CCNCc2c(C)nn(CCO)c2C)c1	-33.75%
[H][C@@]12CCN(C(=O)N(C)C)[C@]1([H])CC[C@H](C(=O)N(C)C)O2	-0.8923% & -20.9%
COc1cc(C(=O)N2CCCS2(=O)=O)ccc1C	-13.66%
COCc1noc(Cn2c(C)cc(C(F)(F)F)cc2=O)n1	-4.895% & -25.62%
COCCCNc1cc(C)nn2cnnc12	11.66%
COc1c(CNCc2ccc(C(=O)N(C)C)cc2)c(C)nn1C.Cl	-6.721%
[H][C@@]12COC[C@@H](C(=O)N3CCOCC3)[C@]1([H])CN(CC1CCCC1)C2	0.7637% & 17.04%
Cc1nn(C)c2c(=O)n(CC(=O)NCCN3CCCCCC3)ccc12	27%
CC(C)CNC(=O)C1=NOC2(CCN(Cc3ccoc3)C2)C1 (configuration not stated)	-15.63%
O=c1nc(SCc2cccnc2)c2c(n1CCO)CCCC2	-31.33%
Cc1noc(C2CCC3(CCN(C(=O)c4ccncn4)CC3)O2)n1 (configuration not stated)	2.375%
CCc1nc(CN(C)C2CCN(Cc3ccc(Cl)s3)C2)no1 (configuration not stated)	2.576%
Cc1cc(C)cc(CNC(C)c2c(C)nn(C)c2C)c1 (configuration not stated)	25.09%
O=C(CC1CCCO1)Nc1ccn(Cc2cccc3cccnc23)n1 (configuration not stated)	7.057%
CCCc1cc(NC(=O)c2cccc(N3CCCNC3=O)c2)n[nH]1	18.64%
CN(Cc1noc(C2CC2)n1)C1CCN(CCc2cccs2)C1 (configuration not stated)	10.28%
COc1cccc(C(=O)Nc2n[nH]c(C3CCCO3)n2)c1 (configuration not stated)	0.4517% & 10.45%
CC(C)(C)NS(=O)(=O)c1ccccc1CNCc1cccc(O)c1	-15.94%
CS(=O)(=O)c1ccc(NCC2CCCO2)c(S(C)(=O)=O)c1 (configuration not stated)	-3.809%
Cc1ccc(NC(=O)NC(C)C(=O)N2CCS(=O)(=O)CC2)cc1 (configuration not stated)	11.67%
NC(=O)C1(c2cnccn2)CCCN1C(=O)Cc1ccsc1 (configuration not stated)	-1.891%
Cc1nc[nH]c1CN1CCn2nc(CN3Cc4ccccc4C3)cc2C1	19.36%
O=C(c1ccnc(N2CCOC(C(F)(F)F)C2)c1)N1CCCC1 (configuration not stated)	-4.058%
CCS(=O)(=O)N1CCC2(CC1)CN(CC1CCOC1)c1ccccc12.O=C(O)C(F)(F)F (configuration not stated)	-61.65%
CC(C)=CCS(=O)(=O)Cc1ccn(-c2cccc(F)c2)n1	42.89% & 6.408%
O=C(O)C(F)(F)F.O=C(O)C(F)(F)F.[H][C@@]12CN(Cc3cnn(C)c3)C[C@]1([H])OCCN2c1ncccn1	-18.04%
O=C1CC(N(C(=O)c2ccc(Oc3ccccc3)cc2)C2CC2)C(=O)N1 (configuration not stated)	-9.405% & -17.13%
CNC(=O)CNCC1(O)CCCN(Cc2ccc(F)c(F)c2)C1=O (configuration not stated)	23.51%
Cc1nn(C)c(C)c1CN(Cc1cccn1-c1cccnc1)C(C)C	-26.03%
CC(=O)N(Cc1noc(C)n1)C1CCN(Cc2ccon2)C1 (configuration not stated)	-13.06%
[H][C@]12CN(C(=O)N(C)C)CCN1C[C@H](c1ccccc1)[C@H]2C(=O)OCC	12.64%
CCOc1ccccc1C(CC(=O)Nc1ncc(C)s1)NC(C)=O (configuration not stated)	-1.993%
CCN(CC)CCNC(=O)CCc1c(C)nn(-c2ccccc2Br)c1C	-3.02%
CCc1nc2n(n1)CCCC2Nc1nc(C2CC2)ns1 (configuration not stated)	15.38%
CN(Cc1cccc(OC(F)(F)F)c1)Cc1cnn(C)c1	3.381%
NS(=O)(=O)c1ccc(CC(=O)N2CCCC(n3cccn3)C2)cc1 (configuration not stated)	37.57%
O=C(O)c1ccccc1-c1cnc(Cn2c(=O)cc[nH]c2=O)s1	-8.613%
Cc1nc(CN2CCCN(Cc3nccn3C(C)C)CC2)no1	4.179%
Cl.O=C(Cn1c(-c2ccco2)cc2cccnc21)N1CCCC1	-20.06%
COCc1cccc(NC(C)C(=O)N(C)Cc2ccccc2)c1 (configuration not stated)	28.16%
COc1cc(C)nc(N2CCN(C(C)c3nc(C)no3)CC2)n1 (configuration not stated)	16.85%
COC(=O)[C@H](CCSC)NC(=O)Cn1ccc2c(Cl)cccc21	11.66%
CNS(=O)(=O)CCCN1CCCCCC1c1ccc(C)o1 (configuration not stated)	25.82%
CNC(=O)NC1CC2(CCNCC2)c2ccc(C)cc21 (configuration not stated)	-11.74% & -41.85%
CS(=O)(=O)CCC(=O)N(CCc1cccc(F)c1)C1CC1	23.13%
CCS(=O)(=O)N1CCc2c(COCCN(C)C)cncc2C1.O=C(O)C(F)(F)F.O=C(O)C(F)(F)F	6.476%
CC(C)CS(=O)(=O)Nc1ccc([C@H]2OCC(=O)N[C@@H]2CO)cc1	8.993% & -0.4642%
Cc1cnc(C(=O)N2CCN(c3ncc4c(n3)CCOC4)CC2)cn1	-24.66%
CCOCCN1CCN(Cc2nnc(C3CC3)o2)CC1CC (configuration not stated)	-16.73% & -3.447%
O=C(NCC(F)(F)F)C1CN(C(=O)c2cnccn2)C1	-1.613% & 68.13%
CNC(=O)NCC(=O)N1CCCC1Cc1cccc(F)c1 (configuration not stated)	24.97%
Cc1nc(CN2CCCC(NCc3cccc(C(N)=O)c3)C2)no1 (configuration not stated)	-56.85% & 5.91%
CC1(C(=O)N2CCOCC2)CN(Cc2c[nH]cn2)CCO1 (configuration not stated)	-7.215%
Cc1nc(CN2CCCC(N(C)c3cnc4ccccc4n3)C2)no1 (configuration not stated)	52.4%
Cc1cc(NCCC(=O)NC2CCS(=O)(=O)C2)nc(-c2ccncc2)n1 (configuration not stated)	41.73%
CNC(=O)N1CCN(C(=O)C(C)C)CC2(CC(=O)N(C)C2)C1 (configuration not stated)	5.436%
CC(NS(=O)(=O)N(C)C(C)C)C(=O)N(C)C (configuration not stated)	-7.37% & -3.632%
CC(NC(=O)c1ccsc1)c1ccc2c(c1)NC(=O)CO2 (configuration not stated)	30.93%
O=C(c1ccc2c(c1)COC2)N1CCC(Nc2ccccc2)CC1	13.95%
COC(=O)N1CCC(CNC(=O)C2CC2)CC1	-32.4%
Cc1nc2c(c(N3C[C@@H](C)[C@@](C)(O)C3)n1)CCC2	-34.44%
Cc1ccc(C2=CCN(C(=O)C3CCN(C)C(=O)C3)CC2)cc1 (configuration not stated)	-20.39%
CN(Cc1ccncc1)C(CO)c1cccc(Br)c1 (configuration not stated)	-3.697%
OC(COc1ccccc1Br)COC1CCOCC1 (configuration not stated)	-34.57%
Cc1ccsc1CN(C)Cc1nc2c(cnn2C)c(=O)[nH]1	-16.8%
CNc1cncc(C2CCN(S(C)(=O)=O)CC2)n1	23.28%
CN(C)c1ncc2c(O)nc(C3CCCNC3)cc2n1 (configuration not stated)	41.51%
CC(NC(=O)NCCCN1CCc2ccccc2C1)c1nncn1C (configuration not stated)	-10.2% & -45.91%
CCc1nc(CCn2ccnc2-c2nccn2C)no1	2.526%
Cl.Cn1ccnc1C1(O)CCN(C(=O)CCc2ccccc2)CC1	4.063%
O=C1CN(C(=O)CCn2c(C(F)(F)F)cc3cccnc32)CCN1	20.81%
CNC(=O)NC(=O)CSC(C)c1ccccc1F (configuration not stated)	-17.51%
Cc1c(CN(C)c2cc(C3CCCNC3)ncn2)[nH]c2ccccc12 (configuration not stated)	23.81%
CS(=O)(=O)N1CC(c2nc(N)ncc2-c2ccc(F)cc2)C1	-16.38%

For reference, 7 entries once more:

SMILES	Percent Effect
Cc1nc(CN2CCCC(NCc3cccc(C(N)=O)c3)C2)no1 (configuration not stated)	-56.85% & 5.91%
O=C(Nc1ccc(-c2csnn2)cc1)NC(CCO)C1CC1 (configuration not stated)	-9.591%
COc1c(CNCc2ccc(C(=O)N(C)C)cc2)c(C)nn1C.Cl	-6.721%
c1cncc(CC2CN(c3cccnc3)CCO2)c1 (configuration not stated)	-5.815%
Cc1cccc(C2(CNC(=O)CO)CCCC2)c1	-41.21%
Cl.Cn1ccnc1C1(O)CCN(C(=O)CCc2ccccc2)CC1	4.063%
[H][C@@]12CCN(C(=O)N(C)C)[C@]1([H])CC[C@H](C(=O)N(C)C)O2	-0.8923% & -20.9%